This assay deals with Gal4 DNA-BD-Grb14 fusion (full length Grb14, GRB14/pAS2.1) (S. cerevisiae) (UniProt P04386+Q14449). The assay is described as follows: yeast two hybrid screen with Grb14 bait.

Sequences of proteins named here, by UniProt entry; tags and fusion partners are left off. A change or cut given only in a name is not applied to a line headed by its entry. A line that says so, or that is headed by a name, gives the form on record, which may keep a tag or linker.
UniProt P04386: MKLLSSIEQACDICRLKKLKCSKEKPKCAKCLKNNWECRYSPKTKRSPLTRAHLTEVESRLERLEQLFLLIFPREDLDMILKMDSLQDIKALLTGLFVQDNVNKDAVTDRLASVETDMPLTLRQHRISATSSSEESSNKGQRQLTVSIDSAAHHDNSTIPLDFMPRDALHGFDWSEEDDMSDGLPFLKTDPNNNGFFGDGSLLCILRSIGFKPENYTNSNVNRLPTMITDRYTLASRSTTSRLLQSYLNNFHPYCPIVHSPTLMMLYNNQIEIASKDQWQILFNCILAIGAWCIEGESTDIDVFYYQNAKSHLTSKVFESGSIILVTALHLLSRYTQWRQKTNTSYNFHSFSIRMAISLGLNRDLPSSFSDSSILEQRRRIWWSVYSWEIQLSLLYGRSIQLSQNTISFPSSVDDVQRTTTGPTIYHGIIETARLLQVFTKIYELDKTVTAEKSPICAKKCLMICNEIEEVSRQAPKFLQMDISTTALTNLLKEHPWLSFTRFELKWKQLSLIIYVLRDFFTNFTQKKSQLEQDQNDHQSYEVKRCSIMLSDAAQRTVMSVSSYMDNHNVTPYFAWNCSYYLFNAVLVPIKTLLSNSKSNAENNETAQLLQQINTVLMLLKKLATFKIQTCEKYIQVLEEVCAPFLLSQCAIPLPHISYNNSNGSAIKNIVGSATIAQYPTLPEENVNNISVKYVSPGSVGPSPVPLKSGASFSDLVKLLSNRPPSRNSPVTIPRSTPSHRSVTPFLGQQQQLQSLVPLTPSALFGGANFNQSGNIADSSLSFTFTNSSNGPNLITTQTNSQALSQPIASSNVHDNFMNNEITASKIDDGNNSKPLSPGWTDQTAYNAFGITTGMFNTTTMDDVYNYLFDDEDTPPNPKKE
UniProt Q14449: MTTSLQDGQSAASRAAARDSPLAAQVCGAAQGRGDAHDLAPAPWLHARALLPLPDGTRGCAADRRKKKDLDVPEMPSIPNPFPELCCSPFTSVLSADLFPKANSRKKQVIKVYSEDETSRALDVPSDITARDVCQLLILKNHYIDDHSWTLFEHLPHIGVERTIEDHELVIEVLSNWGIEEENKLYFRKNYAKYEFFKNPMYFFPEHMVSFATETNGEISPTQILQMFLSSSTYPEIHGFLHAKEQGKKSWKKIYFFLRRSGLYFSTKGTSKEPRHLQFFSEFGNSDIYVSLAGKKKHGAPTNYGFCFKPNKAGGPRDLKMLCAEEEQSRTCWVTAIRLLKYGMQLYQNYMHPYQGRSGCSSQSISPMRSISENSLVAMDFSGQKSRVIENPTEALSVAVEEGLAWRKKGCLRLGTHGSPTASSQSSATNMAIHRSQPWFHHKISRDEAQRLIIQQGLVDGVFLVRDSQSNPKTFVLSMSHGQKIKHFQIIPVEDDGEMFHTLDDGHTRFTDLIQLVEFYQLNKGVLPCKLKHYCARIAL
Nedd4 partial cDNA clone in pACT2 (CaLB domain together with the first 22 amino acids of the first WW domain) (P46934, form named): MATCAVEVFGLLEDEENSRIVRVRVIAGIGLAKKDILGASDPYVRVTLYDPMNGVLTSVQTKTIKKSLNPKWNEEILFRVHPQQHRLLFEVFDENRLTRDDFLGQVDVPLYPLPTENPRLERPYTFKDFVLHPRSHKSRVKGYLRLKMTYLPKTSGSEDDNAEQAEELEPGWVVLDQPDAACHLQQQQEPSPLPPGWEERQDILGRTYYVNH

Results are given in words; binding and its absence hold for the method and conditions named. Some entries that bind do so weakly or less than the wild type.

As for “Nedd4 partial cDNA clone in pACT2 (CaLB domain together with the first 22 amino acids of the first WW domain) (from UniProt P46934 1-212)”, the binding entry was “binds”.

These data come from patent US20020037582A1.
